Broadly, the pKd is −log10 of the Kd, conventionally taken in molar units. Read a low pKd as a large Kd.

pKd: −log10 of the molar value. For some of these results: No signal at the amounts used counts as a negative. Where a protein sequence is shown, tags need not be part of it. For some of these results: For at least one entry, the source does not settle the construct or the ends of the probe. For some of these results: The direction of at least one scale is not stated here.

In series [1] the target is T1, FXIII-A (A subunit, zymogen) (UniProt P00488).
T1 sequence (looked up, limits assumed): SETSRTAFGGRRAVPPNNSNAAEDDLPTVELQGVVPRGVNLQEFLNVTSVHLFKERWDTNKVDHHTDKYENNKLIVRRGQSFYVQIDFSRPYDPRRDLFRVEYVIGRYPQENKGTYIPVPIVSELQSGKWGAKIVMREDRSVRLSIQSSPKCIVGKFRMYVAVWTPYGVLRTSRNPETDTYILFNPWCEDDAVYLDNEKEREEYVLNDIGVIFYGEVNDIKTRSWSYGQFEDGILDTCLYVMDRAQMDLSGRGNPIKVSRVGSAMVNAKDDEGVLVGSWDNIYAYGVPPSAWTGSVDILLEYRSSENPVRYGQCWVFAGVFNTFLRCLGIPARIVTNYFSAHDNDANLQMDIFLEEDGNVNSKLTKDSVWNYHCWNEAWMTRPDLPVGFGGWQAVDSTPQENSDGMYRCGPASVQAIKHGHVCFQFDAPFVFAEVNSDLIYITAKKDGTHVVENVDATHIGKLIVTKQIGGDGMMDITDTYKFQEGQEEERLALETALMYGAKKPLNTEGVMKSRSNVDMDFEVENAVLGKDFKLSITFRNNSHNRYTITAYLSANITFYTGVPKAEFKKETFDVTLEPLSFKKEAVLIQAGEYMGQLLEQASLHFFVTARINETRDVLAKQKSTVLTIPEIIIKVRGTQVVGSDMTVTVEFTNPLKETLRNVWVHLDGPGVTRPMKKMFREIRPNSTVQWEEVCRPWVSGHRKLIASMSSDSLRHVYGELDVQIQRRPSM
Description: BLI. The conditions noted are these: BLI (BLItz, SAX sensors, 3'-biotinylated aptamer 1 µM) in binding buffer, 2200 rpm; buffer composition; plate capture 30 min; commercial protein; label: 3'-biotin (BLI, capture, fibrinogen assay); single-stranded DNA.

Series [2] deals with T2, FXIIIa (activated coagulation factor XIII) (human) (UniProt P00488).
T2 sequence (looked up, limits assumed): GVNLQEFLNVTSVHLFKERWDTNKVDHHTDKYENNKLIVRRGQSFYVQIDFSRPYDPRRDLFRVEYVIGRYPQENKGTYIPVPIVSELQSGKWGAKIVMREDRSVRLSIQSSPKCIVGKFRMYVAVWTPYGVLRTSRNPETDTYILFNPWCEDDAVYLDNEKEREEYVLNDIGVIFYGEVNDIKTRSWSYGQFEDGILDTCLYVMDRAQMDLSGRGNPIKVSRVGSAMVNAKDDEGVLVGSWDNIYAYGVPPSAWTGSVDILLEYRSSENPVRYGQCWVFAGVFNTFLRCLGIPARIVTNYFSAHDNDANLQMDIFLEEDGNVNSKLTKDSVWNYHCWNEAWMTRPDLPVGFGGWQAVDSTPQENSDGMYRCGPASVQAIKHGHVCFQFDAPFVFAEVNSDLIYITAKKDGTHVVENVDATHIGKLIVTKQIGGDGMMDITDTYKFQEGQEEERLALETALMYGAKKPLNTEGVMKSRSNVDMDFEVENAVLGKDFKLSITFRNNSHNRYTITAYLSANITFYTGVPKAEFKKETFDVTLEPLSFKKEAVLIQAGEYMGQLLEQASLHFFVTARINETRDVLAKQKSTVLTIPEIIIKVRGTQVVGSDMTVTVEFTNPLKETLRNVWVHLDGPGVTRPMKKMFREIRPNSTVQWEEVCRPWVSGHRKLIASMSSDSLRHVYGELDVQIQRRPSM
Description: pull-down (aptamer-coated plate, activity read-out). The conditions noted are these: 30 nM FXIIIa, recombinant protein, single-stranded DNA; for binding signal: label: 3'-biotin (BLI, capture, fibrinogen assay).

For the sequence “AAGCAGTGGTAAGTAGGTTGACCATCCGCCGATTAGGCAATCACGTGGCTTAGGCACCGTATCTCTTCGAGCAATCCACAC [FA1]”, the pKd in series [1] is < 6.00. Further, in series [2], the binding signal was 1.6 % captured.

With “AAGCAGTGGTAAGTAGGTTGACCATCGTAGTTCGTACACCAGTCCATTCTAGGACTCACAATCTCTTCGAGCAATCCACAC [FA3]”, the negative logarithm of the Kd (pKd) in series [1] is < 6.00. On to “AAGCAGTGGTAAGTAGGTTGACGCTGCGGGCATCACGTAAGTTAATATATCACTCGGCTATTCTCTTCGAGCAATCCACAC [FA6]”, for which, in series [1], the pKd is < 6.00.

For the sequence “TACTGTCACGAGGATATAGCACATTAGTTCAGATACGATTGTTACTGTCA [negative control oligonucleotide]”, the binding result in series [2] (label: biotin (capture)) is on record as “no binding”. As for “AAGCAGTGGTAAGTAGGTTGAGCTTTCATCACCCGTCGGTTAGACTAAGTCTCCAGCATCCTCTCTTCGAGCAATCCACAC [FA2]”, in series [1], the pKd is < 6.00. Further, the binding signal in series [2] worked out at 1.6 % captured.

Consider “AAGCAGTGGTAAGTAGGTTGATCATCATGTTATTTTTGTTCCATCACGCCAGTTCTGGTTCTCTCTTCGAGCAATCCACAC [FA8]”, for which, in series [1], the pKd is < 6.00. For the same sequence, the binding signal in series [2] was 1.6 % captured. On to “AAGCAGTGGTAAGTAGGTTGATCATCCTCTTTAAGTCATCACTTTAGTTTCTCCATCTACATCTCTTCGAGCAATCCACAC [FA12]”, for which, in series [1], the pKd is < 6.00.

The values are drawn from publication PMC7916480, “Functional and Structural Characterization of Nucleic Acid Ligands That Bind to Activated Coagulation Factor XIII”.
